# Measurements: patent US20160186196A1 (priority 2009, published 2016)
# System: C. reinhardtii UTEX 2244 and transformants
# Assay: Rose Bengal photooxidative stress kill curves in liquid culture
# Format: cell-based, Chlamydomonas reinhardtii
# Details: 2 μM, after exposure to light
# Protocol: Exposure of C. reinhardtii to Rose Bengal was performed as follows. In order to induce apoptosis in C. reinhardtii by the mechanism of photooxidative stress, algal cells were grown on solid medium containing various concentrations of the photosensitizing dye Rose Bengal as described in Fischer et al. (Plant Sci, 168:747-759 (2005)). Duplicate plates with RB levels as high as up to 2.0 μM were initially spread with 1×10^3 cells and resulting colonies were counted after a: period of one week. UTEX 2244 was used as a control. Cell viability is reported as a percentage of surviving cells. Additionally, kill curves were conducted in liquid culture using 100-ml stirrer flasks under the same cultivation conditions mentioned previously, with the exception of aeration. Each culture was seeded with an inoculum of exponentially growing cells (1×10^6 cells ml^−1) and the cell density was measured with a Zeiss Axiovert™ 100 inverted light microscope using a hemocytometer over a one-week period. In the experimental flasks, 100x RB dissolved in isopropanol stock solution was added three days after inoculation to cultures of approximately 0.2×10^6 cells ml^−1 in order achieve a final concentration of 2.0 μM; control flasks were unaltered.
smiles,measurement,value
O=C([O-])c1c(Cl)c(Cl)c(Cl)c(Cl)c1-c1c2cc(I)c(=O)c(I)c-2oc2c(I)c([O-])c(I)cc12.[Na+].[Na+] [Rose Bengal],duration of activity in cultures,lost most activity by the third day
